According to US20040170990A1, “Intracellular nucleic acid inhibitors of small guanine nucleotide exchange factors” (published 2004):
For some assays here: A negative result means that nothing was seen under these conditions. Where a protein sequence is shown, tags need not be part of it. For some assays here: Construct, isoform or probe ends are uncertain for at least one entry.

Legend:
[1] = molecular target: T1, cytohesin-1 (full-length) (UniProt Q15438); test: SELEX; details: clone from round 13; purified recombinant protein; protein details: 6xHis (cytohesin-1-His6), E. coli, Ni-NTA
T1 sequence (looked up): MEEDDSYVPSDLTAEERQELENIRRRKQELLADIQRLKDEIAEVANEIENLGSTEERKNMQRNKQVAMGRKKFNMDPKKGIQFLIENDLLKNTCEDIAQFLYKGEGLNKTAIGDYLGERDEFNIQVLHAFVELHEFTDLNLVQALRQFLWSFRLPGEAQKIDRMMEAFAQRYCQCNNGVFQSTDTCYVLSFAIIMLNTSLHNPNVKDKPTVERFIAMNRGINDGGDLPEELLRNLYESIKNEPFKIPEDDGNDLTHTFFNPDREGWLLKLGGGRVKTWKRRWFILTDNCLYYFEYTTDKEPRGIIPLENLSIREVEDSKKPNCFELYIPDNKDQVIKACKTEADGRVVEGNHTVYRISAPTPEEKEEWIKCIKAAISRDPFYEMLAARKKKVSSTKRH

[2] = molecular target: T2, cytohesin-1 Sec7 domain, biotinylated (UniProt Q15438); test: SELEX; details: 5 mM MgCl2, 22 C, purified recombinant protein, protein details: Sulfo-NHS-LC-biotin, on streptavidin Dynabeads
T2 sequence (looked up, limits assumed): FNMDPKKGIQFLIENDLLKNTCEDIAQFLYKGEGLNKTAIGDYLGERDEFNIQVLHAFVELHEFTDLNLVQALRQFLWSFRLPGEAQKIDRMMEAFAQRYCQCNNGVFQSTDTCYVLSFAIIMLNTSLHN

[3] = molecular target: T1, cytohesin-1 (full-length); test: inhibition of the protein; details: inhibits GDP/GTP exchange on ARF-1 at 3.2 µM, concentration-dependent; 50 mM HEPES pH 7.4, 1 mM MgCl2, 37 C; purified recombinant protein; protein details: 6xHis (cytohesin-1-His6), E. coli, Ni-NTA; label: 5'-32P (filter binding)
[4] = molecular target: T3, cytohesin-1 Sec7 domain (C1-Sec7) (UniProt Q15438); test: inhibition of the protein; details: inhibits GDP/GTP exchange on ARF-1 at 3.2 µM; purified recombinant protein; protein details: 6xHis, E. coli; label: 5'-32P (filter binding)
T3 sequence (looked up, limits assumed): T2 sequence (looked up, limits assumed)

[5] = molecular target: T4, cytohesin-2 (ARNO) Sec7 domain (C2-Sec7) (UniProt Q99418); test: inhibition of the protein; details: inhibits GDP/GTP exchange on ARF-1 at 3.2 µM; purified recombinant protein; label: 5'-32P (filter binding)
T4 sequence (looked up, limits assumed): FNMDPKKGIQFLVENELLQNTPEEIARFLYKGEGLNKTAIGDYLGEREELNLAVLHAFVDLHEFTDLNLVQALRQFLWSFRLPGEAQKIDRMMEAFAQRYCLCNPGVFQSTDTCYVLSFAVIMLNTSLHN

[6] = molecular target: T5, Gea2 Sec7 domain (Gea2-Sec7, G2-Sec7) (UniProt P39993); test: inhibition of the protein; details: exchange activity not influenced at 3.2 µM; purified recombinant protein; protein details: 6xHis, provided by Cathy Jackson; label: 5'-32P (filter binding)
T5 sequence (looked up, limits assumed): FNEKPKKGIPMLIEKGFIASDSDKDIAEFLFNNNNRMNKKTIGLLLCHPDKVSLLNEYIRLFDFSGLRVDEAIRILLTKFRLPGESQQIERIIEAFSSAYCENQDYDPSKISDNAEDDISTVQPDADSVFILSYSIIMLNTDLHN

| Sequence | selection result [2] | other results |
| --- | --- | --- |
| GGGAGAGACAAGCUUGGGUCUGCUCUCCAUGGGUGCUCUUGAAAGGGGAAGGGAUGUGGAGAAGAGAAAGAGAAGUUAAUUAAGGAUCCUCAG [M11] | – | selection result [1]: selected |
| GGGAUAGGAUCCACAUCUACGUAUUAAUACACGAUUCCAGGCCGGGAAACGAGGACUUCACUGCAGACUUGACGAAGCUU [NC1F-C15] | selected | – |
| GGGAUAGGAUCCACAUCUACGUAUUACGGGCCCACGCGCGACCGACCUCCUAACCAUUCACUGCAGACUUGACGAAGCUU [NC1F-C1] | selected | – |
| GGGAUAGGAUCCACAUCUACGUAUUAAUGCAUGCCUACGACGCCCGCCGGUCACGUUCACUGCAGACUUGACGAAGCUU [NC1F-C13] | selected | – |
| GGGAUAGGAUCCACAUCUACGUAUUAACCCCCCACUCGACAACCCAACGCCCGCUAUUCACUGCAGACUUGACGAAGCUU [NC1F-C12] | selected | – |
| GGGAUAGGAUCCACAUCUACGUAUUAAUACCAUAACACCGCCGGCCUGUGUACGCGUUCACUGCAGACUUGACGAAGCUU [NC1F-C19] | selected | – |
| GGGAGAGACAAGCUUGGGUCUAUUAUGCCUUUAGCUAGCGCAUUCUGUGGGGUGGGUGGAAGAAGAGAAAGAGAAGUUAAUUAAGGAUCCUCAG [M69] | – | functional effect of the aptamer [3]: active; functional effect of the aptamer [4]: active; functional effect of the aptamer [5]: active; functional effect of the aptamer [6]: not active |
| GGGAUAGGAUCCACAUCUACGUAUUACCGACCGGCCAUAUUACGCGUAAUCUACCUUCACUGCAGACUUGACGAAGCUU [NC1F-C3] | selected | – |
| GGGAUAGGAUCCACAUCUACGUAUUAAUACAGUAUAACCGGCAUGCCGCAUCGACUUCACUGCAGACUUGACGAAGCUU [NC1F-C10] | selected | – |
| GGGAGAGACAAGCUUGGGUCUGCCCGCUUAGAAAUCCCAAAGUGCGGGAACGGUUGCGAAGAAGAGAAAGAGAAGUUAAUUAAGGAUCCUCAG [M21] | – | selection result [1]: selected |
| GGGAUAGGAUCCACAUCUACGUAUUAAUACACCAGCGCGCCGAGACUAACUCCGACUUCACUGCAGACUUGACGAAGCUU [NC1F-C2] | selected | – |
| GGGAUAGGAUCCACAUCUACGUAUUACCACCAGGGAUAAGGUCGAACCCUGUCGUCUUCACUGCAGACUUGACGAAGCUU | – | selection result ([2]; 12 identical clones, 20 mM Tris pH 7.5, 100 mM NaCl): selected |
| GGGAGAGACAAGCUUGGGUCGGGAAGGGUGGAAGUGCUGCUUGGUGCUCUGUCCUUUUUUAAGAAGAGAAAGAGAAGUUAAUUAAGGAUCCUCAG [M26] | – | selection result [1]: selected |
| GGGAUAGGAUCCACAUCUACGUAUUAGGCCGGCAAUGCGUAAACAGGGCCCAGAAGUUCACUGCAGACUUGACGAAGCUU [NC1F-C8] | selected | – |
| GGGAGAGACAAGCUUGGGUCGAUGUUGGCAGGCUGUCGUCACUGGUGGGUCUAAUUCCCGAGAAGAGAAAGAGAAGUUAAUUAAGGAUCCUCAG [M15] | – | selection result [1]: selected |
| GGGAGAGACAAGCUUGGGUCUGGUUUGAACGGGGGCGCAUCAGCCAUGCUAUAAACUCCAAGAAGAGAAAGAGAAGUUAAUUAAGGAUCCUCAG [M72] | – | selection result [1]: selected |
| GGGAUAGGAUCCACAUCUACGUAUUAGCGCUGAUACAUCGACCUCGCCUAACAAGGUUCACUGCAGACUUGACGAAGCUU [NC1F-C7] | selected | – |
